Results reported in PMC2828546, “Screening-based discovery of drug-like O-GlcNAcase inhibitor scaffolds” (Febs Letters, 2010).

The chains behind the UniProt entries cited, without tags or fusion partners. Residues count along the entry.
UniProt Q0TR53, 31-624 limits assumed: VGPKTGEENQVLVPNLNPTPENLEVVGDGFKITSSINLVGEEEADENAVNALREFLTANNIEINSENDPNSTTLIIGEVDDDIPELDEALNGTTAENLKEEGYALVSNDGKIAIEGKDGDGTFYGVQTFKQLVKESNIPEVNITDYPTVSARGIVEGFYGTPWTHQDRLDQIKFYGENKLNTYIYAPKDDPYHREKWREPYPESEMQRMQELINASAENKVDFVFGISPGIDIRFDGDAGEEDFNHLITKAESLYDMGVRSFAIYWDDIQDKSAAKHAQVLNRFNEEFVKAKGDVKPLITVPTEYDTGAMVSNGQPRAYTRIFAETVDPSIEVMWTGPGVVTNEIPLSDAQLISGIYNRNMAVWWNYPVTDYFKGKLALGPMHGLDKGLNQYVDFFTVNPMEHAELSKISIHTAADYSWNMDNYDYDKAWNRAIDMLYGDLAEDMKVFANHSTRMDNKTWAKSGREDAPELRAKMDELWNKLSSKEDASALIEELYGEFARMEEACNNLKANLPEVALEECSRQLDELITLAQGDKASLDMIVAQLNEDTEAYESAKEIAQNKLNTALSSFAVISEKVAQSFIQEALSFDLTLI

Assays:
human hexosaminidase A/B = experiment: HexA/B inhibition, fluorogenic 4MU-NAG substrate; assay type: biochemical; settings: 230 μM substrate (Km), 15 min, pH 5.7
Procedure: Further kinetic experiments to determine the mode of inhibition were carried out according to the procedure described previously. […] IC50 measurements with CpOGA, hOGA and a mixture of human hexosaminidase A/B activities (Sigma A6152) against the compounds were performed using the fluorogenic 4MU-NAG substrate and standard reaction mixtures as described previously with some changes [[39,31,40]]. Standard reaction mixtures (50 μl) contained 0.2 nM CpOGA, 2 nM hOGA or 50 μ units unit/ml HexA/B in McIlvaine buffer (0.2 M Na2HPO4 mixed with 0.1 M citric acid to pH 5.7) supplemented with 0.1 mg/ml BSA. […] The reactions were run at room temperature for 7 min (CpOGA), 60 min (hOGA) or 15 min (HexA/B).

CpOGA = CpOGA (Clostridium perfringens, UniProt Q0TR53); experiment: biochemical

## CC(=O)Nc1nnc(S(N)(=O)=O)s1 [Acetazolamide, acetazolamide]
Human hexosaminidase A/B
  IC50: 32 ± 2 µM
CpOGA
  IC50: 80 ± 14 µM
